No constants are given. Whether binding was seen depends on the method and setting. In cells and extracts the contact can be indirect. Some results given as binding are weak or reduced against the parent protein; the word gives no strength.
Molecular target: vimentin (human (endogenous in HMEC-1)) (UniProt P08670)
Experiment: co-IP; lysates of negative control and live Tp-infected (6 hours) HMEC-1 cells; incubated overnight at 4°C with anti-vimentin antibody, anti-AKT1 antibody or control IgG; magnetic Protein A/G beads; Western blotting

The chains behind the UniProt entries cited, without tags or fusion partners.
UniProt P08670: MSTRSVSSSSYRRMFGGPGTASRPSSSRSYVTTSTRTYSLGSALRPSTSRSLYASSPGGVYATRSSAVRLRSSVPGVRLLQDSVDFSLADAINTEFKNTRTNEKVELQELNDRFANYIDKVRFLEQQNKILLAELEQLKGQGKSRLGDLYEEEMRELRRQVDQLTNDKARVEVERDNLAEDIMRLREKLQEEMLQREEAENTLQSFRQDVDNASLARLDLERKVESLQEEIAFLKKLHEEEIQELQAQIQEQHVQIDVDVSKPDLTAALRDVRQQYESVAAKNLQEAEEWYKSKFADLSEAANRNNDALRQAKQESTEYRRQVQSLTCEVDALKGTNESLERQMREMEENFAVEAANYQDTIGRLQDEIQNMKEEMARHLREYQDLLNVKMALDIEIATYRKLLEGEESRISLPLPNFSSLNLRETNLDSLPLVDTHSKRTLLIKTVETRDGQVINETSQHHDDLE
UniProt P31749: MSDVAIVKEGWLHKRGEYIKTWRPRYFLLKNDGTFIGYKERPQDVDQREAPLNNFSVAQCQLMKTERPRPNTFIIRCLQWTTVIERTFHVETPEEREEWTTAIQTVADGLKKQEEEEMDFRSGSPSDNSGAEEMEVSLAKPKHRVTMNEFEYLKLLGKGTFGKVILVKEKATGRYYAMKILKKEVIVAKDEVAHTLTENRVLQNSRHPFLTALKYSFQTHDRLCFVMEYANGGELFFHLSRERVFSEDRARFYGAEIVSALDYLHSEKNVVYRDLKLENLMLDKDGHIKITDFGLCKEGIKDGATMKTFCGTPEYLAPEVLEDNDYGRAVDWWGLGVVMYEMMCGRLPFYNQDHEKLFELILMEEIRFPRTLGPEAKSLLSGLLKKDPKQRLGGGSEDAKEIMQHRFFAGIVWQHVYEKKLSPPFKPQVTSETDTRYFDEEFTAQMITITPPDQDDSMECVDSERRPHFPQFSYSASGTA

binding: binds
Substance: AKT1 (from UniProt P31749 1-480) (enzyme)

Reference: paper PMC11398692
